These are yes or no findings as the source states them, for the method shown. Some binding calls cover weakened binding; strength is not graded here.
Target: T1, rat Nogo-A d20plus region, recombinantly produced in E. coli (rat) (UniProt Q9JK11)
T1 sequence (looked up): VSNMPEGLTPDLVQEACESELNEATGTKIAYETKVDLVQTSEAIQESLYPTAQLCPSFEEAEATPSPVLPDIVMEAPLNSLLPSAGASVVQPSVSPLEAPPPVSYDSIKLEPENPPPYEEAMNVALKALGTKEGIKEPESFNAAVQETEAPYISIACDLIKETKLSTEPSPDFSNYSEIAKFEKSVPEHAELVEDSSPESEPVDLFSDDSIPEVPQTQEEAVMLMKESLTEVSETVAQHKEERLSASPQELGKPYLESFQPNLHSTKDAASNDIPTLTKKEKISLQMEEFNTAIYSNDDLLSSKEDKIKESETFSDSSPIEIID
Test: ELISA

binding: binds
B1: anti-Nogo-A specific human antibody NG034 (antibody, V domains shown)
VH: EVQLVETGGGLVPPGGSLRLSCAASGFTFTNYSMHWVRLAPGKRLEYISAISSDGGDPFYASSVKGRVAISRDNSKKTLYLQMGRLRPEDTAVYYCVSDAFDVWGQGTMVTVSS
VL: EIVLTQSPLSLSVTLGQPASISCRSSQSLLYSNGNTYLNWFQQRPGQSPRRLLYRVSNRDSGVPDRFSGSGSGTHFTLKISRVEAEDVGVYYCMQGTHWPRTFGQGTKVEIK

— patent publication US20230399390A1
